Values of other authors in patent US20050165109A1, “Pharmaceutical composition with combined active agents and methods for using the same” (priority 2002, published 2005).
For at least one compound, name, drawing or mass did not settle the structure.

Details: literature: WO 99/40904, U.S. Pat. No. 5,304,575, Vuorinen-Markkola 1993, Hernandez-Mijares 2000; cited from earlier work

For `CC(C)(Oc1ccc(CCNC(=O)c2ccc(Cl)cc2)cc1)C(=O)O` [bezafibrate], which “Glucose-lowering effect (in words)” value is on record?
Its value is “some degree of glucose-lowering effect”.

With `CCOC(=O)C(C)(C)Oc1ccc(Cl)cc1` [clofibrate] as the compound, how does the “Glucose-lowering effect (in words)” value read?
Its value is “lack of glucose-lowering effect”.

Which “Glucose-lowering effect (in words)” value does the source give for `CC(C)OC(=O)C(C)(C)Oc1ccc(C(=O)c2ccc(Cl)cc2)cc1` [fenofibrate] here?
Its value is “some degree of glucose-lowering effect”.
